Record: PubChem BioAssay AID1259290 (Sanger Institute, 2017)
The deposit covers 794 reagents; shown is an unselected part. Over the whole deposit, 9 (1.1%) got an active call. 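Calls rest on knock-down alone, not drug synergy; synergy above 0.15 was grouped apart and does not affect calls.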 Viability is capped at 1. Not stated in the record: the amount of reagent, the time to read-out.

Aim: 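Kinases whose loss kills colorectal cancer cells alone or alongside targeted drugs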 (primary screen)
Cell system: human SNUC1 colorectal cancer cells
Reagent: siRNA pool against human genes
Treatment: anchor drugs BYL719 1 µM, cetuximab 5 µg/ml or trametinib 10 nM, or DMSO vehicle alone
Measurement: 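Viability averaged over replicates and scaled to non-targeting siRNA, robust z-score with no drug, and synergy scores by drug for BYL719, cetuximab and trametinib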
Direction: viability z-score, siRNA alone: higher = more viable cells; low values mean essential gene; viability vs control, siRNA alone: higher = more viable cells; synergy score with BYL719 and synergy score with Cetuximab and synergy score with Trametinib: higher = stronger synthetic lethal effect with drug
Rule for the call: 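Essential when the robust viability z-score with siRNA alone falls below -3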
Meaning of the calls: active = essential: knock-down alone cut viability (z below -3); inactive = no clear viability loss with knock-down alone

gene	viability z-score, siRNA alone	viability vs control, siRNA alone	synergy score with BYL719	synergy score with Cetuximab	synergy score with Trametinib	Call
TGFBR3 (GeneID 7049)	0.936	1	-0.198	-0.0447	-0.0637	inactive
GK2 (GeneID 2712)	-1.36	0.794	-0.158	-0.242	-0.0741	inactive
ABL1 (GeneID 25)	-0.222	0.896	-0.114	0.0313	-0.0304	inactive
AMER1 (GeneID 139285)	0.936	1	0.0766	-0.0338	0.0552	inactive
FN3KRP (GeneID 79672)	-2.22	0.716	-0.16	-0.0465	-0.0145	inactive
CSK (GeneID 1445)	-0.746	0.848	-0.171	-0.0252	-0.155	inactive
EPHA1 (GeneID 2041)	0.359	0.948	0.0458	-0.0259	0.0826	inactive
PRKACG (GeneID 5568)	0.936	1	0.0613	0.0872	0.0934	inactive
RBM10 (GeneID 8241)	0.846	0.992	-0.000824	0.0922	-0.0354	inactive
PRKACB (GeneID 5567)	0.0339	0.919	-0.203	-0.122	-0.163	inactive
MAST3 (GeneID 23031)	-0.113	0.905	-0.19	0.188	0.0649	inactive
PIP5K1A (GeneID 8394)	-1.65	0.767	0.0106	0.112	0.0286	inactive
IP6K1 (GeneID 9807)	0.936	1	-0.176	-0.0447	0.0298	inactive
EPHA2 (GeneID 1969)	-0.187	0.899	-0.163	-0.141	-0.161	inactive
PGK2 (GeneID 5232)	-1.1	0.816	-0.262	-0.0119	-0.0289	inactive
LYN (GeneID 4067)	0.936	1	0.00781	-0.0447	0.0612	inactive
FGFR3 (GeneID 2261)	0.936	1	0.114	-0.0447	0.0102	inactive
PRKAR2B (GeneID 5577)	0.735	0.982	0.0444	0.00496	0.123	inactive
STK38 (GeneID 11329)	-2.33	0.706	0.0233	0.0417	0.0611	inactive
SRC (GeneID 6714)	-1.7	0.763	-0.269	-0.0244	-0.158	inactive
CAMK1D (GeneID 57118)	0.936	1	-0.0412	0.0788	0.027	inactive
NR2F2 (GeneID 7026)	-0.646	0.857	0.0478	-0.034	0.0508	inactive
TRPM6 (GeneID 140803)	-0.554	0.866	-0.306	-0.173	-0.0589	inactive
CSNK2A2 (GeneID 1459)	-2.23	0.714	-0.0465	-0.138	-0.039	inactive
CRKL (GeneID 1399)	-0.469	0.873	-0.3	0.0365	-0.0921	inactive
DGKQ (GeneID 1609)	-0.277	0.891	-0.268	0.0293	-0.083	inactive
SRPK1 (GeneID 6732)	0.936	1	-0.0222	-0.0431	0.088	inactive
POMK (GeneID 84197)	-0.281	0.89	-0.2	0.0503	-0.149	inactive
MAPKAPK5 (GeneID 8550)	0.936	1	0.0181	-0.0447	0.0533	inactive

An excerpt from above, reduced to “viability vs control, siRNA alone”.
CSNK2A2 (GeneID 1459)	0.714
CRKL (GeneID 1399)	0.873
DGKQ (GeneID 1609)	0.891

Further results follow:
gene	viability z-score, siRNA alone	viability vs control, siRNA alone	synergy score with BYL719	synergy score with Cetuximab	synergy score with Trametinib	Call
TRIB2 (GeneID 28951)	0.584	0.968	-0.173	-0.0751	0.108	inactive
STK31 (GeneID 56164)	0.131	0.927	-0.117	-0.0438	0.00894	inactive
PAK1 (GeneID 5058)	0.936	1	-0.198	-0.0447	-0.0494	inactive
CRIM1 (GeneID 51232)	0.0325	0.919	-0.0466	-0.0097	0.104	inactive
MAPK6 (GeneID 5597)	0.892	0.996	-0.0607	-0.0486	0.0854	inactive
ULK1 (GeneID 8408)	0.936	1	-0.121	0.0918	0.0874	inactive
PDK2 (GeneID 5164)	-0.172	0.9	-0.0521	-0.123	0.0505	inactive
SNRK (GeneID 54861)	-0.514	0.869	-0.23	-0.115	-0.124	inactive
PFKFB3 (GeneID 5209)	0.0891	0.924	-0.0148	0.0671	0.0273	inactive
MAPK13 (GeneID 5603)	0.936	1	-0.198	0.0107	-0.0342	inactive
PRKCG (GeneID 5582)	0.936	1	-0.087	0.0556	0.0964	inactive
PKN2 (GeneID 5586)	-3.11	0.636	-0.209	-0.194	-0.0912	active
CDKL2 (GeneID 8999)	-1.13	0.814	-0.119	-0.162	-0.0535	inactive
PANK2 (GeneID 80025)	0.936	1	-0.0584	-0.015	-0.011	inactive
TYK2 (GeneID 7297)	0.302	0.943	-0.0724	0.0509	-0.0809	inactive
ALPK2 (GeneID 115701)	0.647	0.974	-0.176	0.0306	0.0634	inactive
CASP8 (GeneID 841)	0.936	1	-0.15	-0.0447	-0.0847	inactive
PKM (GeneID 5315)	0.0699	0.922	-0.236	-0.075	-0.0616	inactive
MATK (GeneID 4145)	-0.743	0.849	-0.319	-0.0754	-0.112	inactive
NF1 (GeneID 4763)	0.264	0.939	-0.154	-0.103	-0.136	inactive
DGKB (GeneID 1607)	-0.307	0.888	-0.041	-0.115	0.0169	inactive
DYRK1A (GeneID 1859)	0.936	1	-0.127	0.00524	0.0307	inactive
TRPM7 (GeneID 54822)	0.936	1	-0.14	-0.0447	-0.00993	inactive
CDC42BPG (GeneID 55561)	0.344	0.947	-0.144	0.0201	0.0148	inactive
ALDH18A1 (GeneID 5832)	-1.2	0.808	-0.193	-0.0363	0.0201	inactive
MYH10 (GeneID 4628)	-0.121	0.905	-0.0805	-0.136	0.129	inactive
CKMT2 (GeneID 1160)	0.936	1	-0.166	-0.0447	-0.0691	inactive
BCKDK (GeneID 10295)	0.936	1	-0.198	-0.0447	-0.0716	inactive
AK1 (GeneID 203)	0.936	1	-0.138	-0.00206	0.0722	inactive
POLR2B (GeneID 5431)	-0.101	0.907	-0.201	-0.0699	-0.0332	inactive
CAMK2B (GeneID 816)	-0.286	0.89	0.0296	0.0595	0.0399	inactive
CDKN1C (GeneID 1028)	0.936	1	-0.106	-0.0447	0.0941	inactive
CAMK1G (GeneID 57172)	-1.68	0.765	-0.176	0.0211	-0.0191	inactive
GATA3 (GeneID 2625)	0.936	1	0.0153	-0.0116	0.0359	inactive
